Measured data: PubChem BioAssay AID1224830 (NIAID, 2016)
Aim: 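Regulators of TLR4 signalling towards TNF-alpha in macrophage-like cells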 (primary screen). System: human THP-1 monocytic leukaemia cells, TNF dual-luciferase reporter clone, PMA-differentiated to macrophage-like cells. Reagents: siRNA pool against human genes, 50 nM. Time to read-out: LPS for 4 h, given about 3 days after siRNA transfection. Treatment: bacterial LPS (TLR4 ligand), 10 ng/ml. Read-out: 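TNF firefly reporter luminescence divided by renilla, normalised to the plate median, then turned into a robust z-score for each replicate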. Scale: TNF reporter robust z-score: higher = stronger TNF reporter response to LPS. Active means: 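a well is active when its z-score exceeds 2.8 or falls below -1.5; control wells carry no call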.
In all, the deposit lists about 18,000 reagents; shown is a part drawn at random. Of all reagents, about 2,900 (16%) are marked active. 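Calls are made per well; low scores hint the gene aids the LPS response, high scores that it dampens it.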 A number with no mark means an inactive call. Repeated entries: four replicate wells of each siRNA pool.

no.	target	TNF reporter robust z-score
1	CXCL14	0.11
2	CXCL14	0.7
3	CXCL14	-1.27
4	CXCL14	-0.69
5	LCE3A	1.78
6	LCE3A	1.85
7	LCE3A	1.28
8	LCE3A	1.18
9	SELENOO	0.04
10	SELENOO	-0.33
11	SELENOO	-0.81
12	SELENOO	-0.38
13	SPRR2E	0.18
14	SPRR2E	0.3
15	SPRR2E	1.27
16	SPRR2E	0.17
17	SSTR2	-0.11
18	SSTR2	1.57
19	SSTR2	0.81
20	SSTR2	0.62
21	TLR8	-0.93
22	TLR8	-0.42
23	TLR8	-0.84
24	TLR8	-0.34
25	TGFB1	0.27
26	TGFB1	0.7
27	TGFB1	1.65
28	TGFB1	0.64
29	NDE1	-1.65 (active)
30	NDE1	-1.79 (active)
31	NDE1	-1.86 (active)
32	NDE1	-1.73 (active)
33	LRRC75A	1.37
34	LRRC75A	-0.5
35	LRRC75A	-0.37
36	LRRC75A	1.57
37	TMEM190	0.85
38	TMEM190	1.64
39	TMEM190	-0.05
40	TMEM190	0.53
41	RAET1L	-0.24
42	RAET1L	0.64
43	RAET1L	-0.03
44	RAET1L	0.29
45	ARFIP1	-1.76 (active)
46	ARFIP1	-1.39
47	ARFIP1	-1.62 (active)
48	ARFIP1	-0.87
49	PTX3	0.64
50	PTX3	0.94
51	PTX3	0.16
52	WDR90	-0.27
53	WDR90	-0.91
54	WDR90	-0.71
55	MARCHF4	0.47
56	MARCHF4	-0.55
57	MARCHF4	-0.76
58	MARCHF4	-1.12
59	IRGQ	-0.63
60	IRGQ	-0.31
61	IRGQ	-0.64
62	IRGQ	0.52
63	SRGAP1	-0.26
64	SRGAP1	0.14
65	SRGAP1	-0.49
66	SRGAP1	-0.2
67	FUT6	2.06
68	FUT6	2.77
69	FUT6	1.05
70	FUT6	2.99 (active)
71	KCNH5	-1.43
72	KCNH5	-0.81
73	KCNH5	-0.92
74	KCNH5	-1.28
75	CNTD1	0.01
76	CNTD1	0.32
77	CNTD1	-1.07
78	CNTD1	0.07

Ordered by “TNF reporter robust z-score” (descending): 10 of the entries above.
target	TNF reporter robust z-score
IRGQ	0.52
SRGAP1	0.14
SRGAP1	-0.2
SRGAP1	-0.26
IRGQ	-0.31
SRGAP1	-0.49
IRGQ	-0.63
IRGQ	-0.64
MARCHF4	-0.76
MARCHF4	-1.12
